According to patent US6891062B2, “Pharmaceutical composition for treatment of diseases associated with decrease in bone mass” (Ono Pharmaceutical Co., Ltd., priority 1999, dated 2005):
Some results were stated once for a whole list of compounds, not compound by compound. Some compounds share one range, which may span the group rather than tell each member.

Tested on: Beagle/CSK strain dogs
Experiment: Promoting action on bone formation: determination of bone area of femur
Type: in vivo
Conditions: dog; 5 μg/kg/day
Excerpt: Beagle/CSK strain dogs of 6-month old were used (n=3 to 6 per group). Into a physical saline solution, each (11 α, 15 α, 13E)-9-oxo-11,15-dihydroxy-16-(3-methoxymethylphenyl)-17,18,19,20-tetranor-5-t hiaprost-13-enoic acid methyl ester (methyl ester of a compound of the formula (IE)) α-cyclodextrin clathrate (containing rate of an active ingredient in α-cyclodextrin clathrate form is 25% w/w), (11 α, 15 α, 13E)-9-oxo-11,15-dihydroxy-16-(3-methoxymethylphenyl)-17,18,19,20-tetranor-3,7-dithiaprost-13-enoic acid (a compound of the formula (IF)), (9β, 11 α, 15 α, 5Z, 13E)-9-chloro-11,15-dihydroxy-16-(3-ethoxymethylphenyl)-17,18,19,20-tetranorpro st-5,13-dienoic acid (a compound of the formula (IG)), (11 α, 15 α, 13E)-9-oxo-11,15-dihydroxy-16-(3-methoxymethylphenyl)-17,18,19,20-tetranorpro st-13-enoic acid (methyl ester of a compound of the formula (IH)), and (11 α, 15 α, 5Z, 13E)-9-oxo-11,15-dihydroxy-16-(3-ethoxymethylphenyl)-17,18,19,20-tetranorprost-5,13-dienoic acid (a compound of the formula (IJ)) was dissolved, and administered continuously to each animal at the effective doses of 2, 5, 10 and 25 μg/kg/day, for 24 hours per day during 4 weeks. Each test solution was administered into femoral vein through holding-catheter at the rate of 0.2 ml/kg/hour. An equal volume of physical saline solution was administered into an animal of the control group. After termination of administration, each animal was sacrificed to carry out autopsy. The separated femur was fixed with 10% buffered formalin solution and then was cut into a round slice with the width of 10 mm vertically to longitudinal axis at the 25 mm central side from trochlea sulcus. Pictures of bone surface near side of epiphysis were taken with camera connected to the computer from the constant distance, and then the resulted digital image was analyzed to determine bone area.

Compound	increase of bone area compared with Untreated Group
CCOCc1cccc(C[C@H](O)/C=C/[C@H]2[C@H](O)CC(=O)[C@@H]2C/C=C\CCCC(=O)O)c1 [Invention compound (IJ), (11 α, 15 α, 5Z, 13E)-9-oxo-11,15-dihydroxy-16-(3-ethoxymethylphenyl)-17,18,19,20-tetranorprost-5,13-dienoic acid]	2.8-5.3 fold
COCc1cccc(C[C@H](O)/C=C/[C@H]2[C@H](O)CC(=O)[C@@H]2CCCCCCC(=O)O)c1 [Invention compound (IH), (11 α, 15 α, 13E)-9-oxo-11,15-dihydroxy-16-(3-methoxymethylphenyl)-17,18,19,20-tetranorpro st-13-enoic acid]	2.8-5.3 fold
COCc1cccc(C[C@H](O)/C=C/[C@H]2[C@H](O)CC(=O)[C@@H]2SCCCSCC(=O)O)c1 [Invention compound (IF), (11 α, 15 α, 13E)-9-oxo-11,15-dihydroxy-16-(3-methoxymethylphenyl)-17,18,19,20-tetranor-3,7-dithiaprost-13-enoic acid]	2.8-5.3 fold
